Measured values reported in article PMC10192418, “High-affinity peptides developed against calprotectin and their application as synthetic ligands in diagnostic assays” (Nature Communications, 2023).
These are yes or no findings as the source states them, for the method shown.

Biological target: non-tetrameric mutant (E78A) of the recombinant calprotectin (human)
Assay: fluorescence polarisation; calprotectin serially diluted, fluorescent peptide at 20 nM; 20 mM HEPES, 100 mM NaCl, 2 mM CaCl2, pH 7.5, 1 mM DTT, 0.01% Tween-20; tetrameric calprotectin; Kd calculated on the concentration of the heterodimer (1:1 heterodimer:peptide); both purified

- binding: no binding
Binder: RSPESVAFPMFQSHWYSG (5(6)-carboxyfluorescein on the N-terminus) [linear peptide 3]
